In general, IC50 refers to the concentration that gives 50% inhibition.

The text below walks through data of patent US11246877B2, “Nanoparticles for chemotherapy, targeted therapy, photodynamic therapy, immunotherapy, and any combination thereof” (The University of Chicago, priority 2016, dated 2022).

Type in all cases: cell-based
One test relates to A549 cells. Nature of the test: In vitro cytotoxicity against non-small cell lung cancer cells, MTS, 72 h. Conditions: Homo sapiens. Here is the method:
H460 and A549 cells seeded on 96-well plates at a density of 2000 cells/well were treated with Zn/PTX and free PTX at various […] concentrations for 72 h. The cell viability was then detected by MTS assay (Promega, USA) and the IC50 values were calculated accordingly.

A further test concerns SKOV-3 cells. Nature of the test: In vitro cytotoxicity in ovarian cancer cells, MTS, 72 h. Conditions: SKOV-3, 72 h, cisplatin concentration. Here is the method: (§1) A2780, A2780/CDDP, and SKOV-3 cells were seeded into 96-well plate at 2000 cells/well for 24 h. Afterwards cells were treated with free DHA or Zn/DHA at various concentrations and incubated for another 72 h. The cell viability was then determined via MTS assay by microplate reader.
(§2) A2780, A2780/CDDP, and SKOV-3 cells were seeded into 96-well plate at 2000 cells/well for 24 h. Afterwards cells were treated with different formulations at various concentrations and incubated for another 72 h. The cell viability was then determined via MTS assay by microplate reader.

A further test deals with A2780 cells. Described as above. Particulars: A2780, 72 h, cisplatin concentration. The procedure: as §1, §2

The structures appear in SMILES notation.

Take `CC(=O)O[C@H]1C(=O)[C@@]2(C)[C@H]([C@H](OC(=O)c3ccccc3)[C@]3(O)C[C@H](OC(=O)[C@H](O)[C@@H](NC(=O)c4ccccc4)c4ccccc4)C(C)=C1C3(C)C)[C@]1(OC(C)=O)CO[C@@H]1C[C@@H]2O` [PTX, Paclitaxel]: in the test on A549 cells, inhibition was half-maximal at 10.09 ± 0.06 µM (IC50).

Take `N.N.[Cl][Pt][Cl]` [Cisplatin, cisplatin]: the IC50 in the test with SKOV-3 cells was 35 ± 5.43 µM; in the test with A2780 cells, 4.05 ± 0.74 µM.
